Reference: PubChem BioAssay AID1671195 (Yale University, 2021)
Here is an unselected part of about 22,000 reagents. Over the whole deposit, about 1,510 (6.9%) are marked active. 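Active includes knockdowns raising or lowering LDL uptake; positive z-scores mean more uptake, negative mean less.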 Unmarked entries are inactive.

- Screen: 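Genes whose knockdown alters LDL uptake in liver cancer cells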 (primary screen)
- Cells: human Huh7 hepatoma cells
- Reagent: siRNA pool against human genes, 18 nM
- Duration: about 2 to 2.5 days of knockdown, then 8 h LDL uptake
- Treatment: DiI-labelled LDL at 30 µg/ml for 8 h, in lipoprotein-deficient serum medium
- Detection: 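Fluorescent LDL signal imaged in cells, scaled to the plate median, robust z-score for each replicate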
- Reading the numbers: robust z-score: higher = more LDL uptake after knockdown
- Call rule: 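Active when two or more replicates show a robust z-score above 2 or below -2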

Against OR10Q1 the deposit lists robust z-score, replicate 1 = 0.366; robust z-score, replicate 2 = -0.305; robust z-score, replicate 3 = -0.168. After knock-down of LOC440781 (retired record), the screen gave robust z-score, replicate 1 = 3.25 (active); robust z-score, replicate 2 = 2.8; robust z-score, replicate 3 = 2.9. After knock-down of DRICH1, the record shows robust z-score, replicate 1 = -2.25; robust z-score, replicate 2 = -1.14; robust z-score, replicate 3 = -0.104. After knock-down of STX19, the record shows robust z-score, replicate 1 = 2.55 (active); robust z-score, replicate 2 = 2.34; robust z-score, replicate 3 = 1.9. Against HTN3 the deposit lists robust z-score, replicate 1 = -1.25; robust z-score, replicate 2 = -0.0529; robust z-score, replicate 3 = -0.829. Knock-down of COL3A1 resulted in: robust z-score, replicate 1 = -0.372; robust z-score, replicate 2 = -1.64; robust z-score, replicate 3 = -1.15.

Against ZFYVE9 the deposit lists robust z-score, replicate 1 = 0.25; robust z-score, replicate 2 = 0.658; robust z-score, replicate 3 = 0.942. Depletion of POFUT1 came out at: robust z-score, replicate 1 = 0.19; robust z-score, replicate 2 = -1.2; robust z-score, replicate 3 = -1.56. Against POLR2MP1, the values are robust z-score, replicate 1 = -0.193; robust z-score, replicate 2 = 0.256; robust z-score, replicate 3 = 0.334. Knock-down of KLRA1P came out at: robust z-score, replicate 1 = -0.489; robust z-score, replicate 2 = -0.389; robust z-score, replicate 3 = -0.9. Silencing of FICD resulted in: robust z-score, replicate 1 = 0.0968; robust z-score, replicate 2 = -0.182; robust z-score, replicate 3 = -0.764. For OCEL1, the values are robust z-score, replicate 1 = 0.161; robust z-score, replicate 2 = 0.511; robust z-score, replicate 3 = 0.00517.

For LOC442600 (retired record) the deposit lists robust z-score, replicate 1 = -0.0311; robust z-score, replicate 2 = 0.226; robust z-score, replicate 3 = 0.166. With knock-down of SORDL (retired record) the results were robust z-score, replicate 1 = -0.972; robust z-score, replicate 2 = -1.56; robust z-score, replicate 3 = -1.52. Depletion of RAB33A gave: robust z-score, replicate 1 = -0.391; robust z-score, replicate 2 = -0.643; robust z-score, replicate 3 = -0.676. Silencing of LCORL came out at: robust z-score, replicate 1 = 2.64 (active); robust z-score, replicate 2 = 3.1; robust z-score, replicate 3 = 2.29.

2 neighbouring records already listed, for reference:
KLRA1P — robust z-score, replicate 1 = -0.489; robust z-score, replicate 2 = -0.389; robust z-score, replicate 3 = -0.9
FICD — robust z-score, replicate 1 = 0.0968; robust z-score, replicate 2 = -0.182; robust z-score, replicate 3 = -0.764
